## Library screen at single concentrations

From ChEMBL document CHEMBL3988442, “University of Dundee, Small-Polar-MMV Screening Library” (2021).

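Cell assay of Leishmania donovani living inside macrophages; the read-out is not stated. Tested at 30 µM. The record gives no direction; compounds that gave an IC50 in retests scored well above the rest, so higher reads as stronger inhibition. About 69,000 compounds were tested under these conditions; 1.5% (about 1,000) showed 50% or more at least once.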

Results are given as percent effect. The controls that fix the scale are not given in the record; negative values are as filed. Compounds were drawn at random from those tested, without regard to their results. Two or more numbers in one place are separate tests of the same structure; such repeats can differ widely.

CC(C)Oc1ccc(CN)c(C(F)(F)F)c1 gave 6.556%. With CN(C)C(=O)CN1CCOCC2(CCN(CC3CCOC3)CC2)C1.O=C(O)C(F)(F)F.O=C(O)C(F)(F)F (centres undefined) the screen gave -4.443% and 11.67%. N#Cc1cc(F)ccc1CN1CCCCC1Cn1cccn1 (centres undefined) gave 24.83%. CN1CCN(C(=O)CCn2nnc3ccccc32)CC(C(N)=O)C1 (centres undefined) read 30.09%. Result for CCC1CN(CC(=O)NCCN2CCCCC2)c2ccccc2S1 (centres undefined) was 35.75%.

CN(C)Cc1cn(CC2CCCN(c3nccc4occc34)C2)nn1 (centres undefined) read 25.58%. Cc1cc(C)c(C(=O)NCCNc2ncnc3ccccc23)c(=O)[nH]1 read -78.26%. For Cc1cc(C)nc(NC2CC(=O)N(C)C2)n1 (centres undefined) the result was 35.92%. Result for CC(NCc1cccc(S(=O)(=O)N(C)C)c1)c1ccccn1 (centres undefined) was 1.081%. For CN1CC(C(=O)NCCc2ccc(Br)cc2F)CC1=O (centres undefined) the result was -48.86%.

With CC(C)CC(=O)N1CCC(c2nnc3n2CCCCC3)CC1 the screen gave 4.851% and 9.582%. Result for CCOC(=O)CNC(=O)NCc1cccn1Cc1ccccc1 was 24.44% and -17.17%. Result for Cc1cccc(C2CCCN(C(=O)CN3C(=O)CCNC3=O)C2)c1 (centres undefined) was 23.22%. With CC(C)CN1C(=O)C2(CCN(Cc3ccc(F)cc3)C2)c2ccccc21 (centres undefined) the screen gave 34.38%. Result for Cc1cc(=O)[nH]c(SCC(=O)N(C)CC2Cc3ccccc3CN2C)n1 (centres undefined) was 12.01%.

COc1cc2ncn(Cc3ncc[nH]3)c(=O)c2cc1OC read 39.01%. With O=C(Cn1cnc2cc3c(cc21)OCCCO3)NC1CCCCC1 the screen gave 3.746%. Cn1ncc2c1NC(=O)CC2c1c(Cl)cccc1Cl (centres undefined) gave 29.68%. For O=C(O)C(F)(F)F.O=C(O)C(F)(F)F.O=C(O)C(F)(F)F.[H][C@@]12CO[C@@H](CNc3ncccn3)[C@]1([H])CCN(Cc1cccc(C)n1)C2 the result was 1.238%. Result for O=C(NCC(O)c1cccc(F)c1)c1sccc1OC(F)F (centres undefined) was -15.82%.

O=C(O)C(F)(F)F.[H][C@]12CCN(C(=O)C3CCOCC3)[C@@]1([H])CCC(=O)N2Cc1ccncc1 gave 15.79%. Cc1nc(CC(=O)N2CCCN(c3ccc(F)cc3)CC2)cs1 read 10.1%. With [H][C@@]12C[C@@H](c3nnc(C)[nH]3)O[C@]1([H])CN(C(=O)c1cc(C)nn1CC)C2 the screen gave 29.82%. Result for OCC(O)CSCc1cn(-c2ccc(Cl)c(Cl)c2)nn1 (centres undefined) was 26.91%. With CC(=O)N1CCCCCC1C1CCN(Cc2nc(C3CC3)no2)CC1 (centres undefined) the screen gave 4.203%.

Result for CC(C)c1n[nH]c(C2CN(C(=O)c3ncoc3C(C)C)CCO2)n1 (centres undefined) was 21.53%. For CCCn1ncc(C(=O)N(Cc2cccnc2)C[C@@H]2CCC(=O)N2)c1C the result was -8.591%. With CC(C)c1nn(C)cc1CNCc1cccc(N(C)C)c1 the screen gave 4.3%. For c1coc(-c2noc(CN3CC(n4cccn4)C3)n2)c1 the result was -41.39%. CSCC(=O)N1CCCN(Cc2cscn2)CC1 gave 8.448%.

CCn1c(C)nnc1CN(C)C1CCN(CCCOC)C1 (centres undefined) gave 26.54%. For Cc1nc(-c2cccnc2)ncc1C(=O)N1CCC(C(C)N(C)C)CC1 (centres undefined) the result was -14.32% and 33.17%. For O=C(O)C(F)(F)F.[H][C@@]12COC[C@]1(CNS(C)(=O)=O)CN(CC1CCC1)C2 the result was 80.19%. With CCN1CCN(C(C)(C)CNc2nc(C)cc(C3CCC3)n2)CC1 the screen gave 54.39%. COCCC(=O)N1CCC(c2nnc(-c3ccsc3)o2)CC1 gave -15.6%.

Result for Cc1ncc2c(n1)CN(Cc1nc(-c3ccco3)oc1C)CC2 was -6.926%. For CC(C(=O)NCC(C)(C)c1ccc2c(c1)OCCO2)n1cncn1 (centres undefined) the result was -8.061%. For Cc1n[nH]c(C)c1NC(=O)NCc1cc[nH]n1 the result was 10.68%. With C=C(C)Cn1c(=O)nc(N)c2c(-c3ccc(OC)cc3)csc21 the screen gave 10.69%. Result for COc1ncccc1NC(=O)N(CC(C)C)C1CC1 was 33.72%.

For Cc1cccc(C)c1NC(=O)c1cccc(N(C)S(C)(=O)=O)c1C the result was 6.851%. Result for COc1ccc(-c2noc([C@@H]3C[C@H](NC(=O)NC(C)C)CN3C)n2)cc1 was 3.16%. COc1cc(C(=O)N2CC3(CCNCC3)c3cc(Cl)ccc32)ccn1.O=C(O)C(F)(F)F.O=C(O)C(F)(F)F gave 32.35%. Result for O=C(O)C(F)(F)F.[H][C@@]12CCN(c3ncccn3)[C@@]1([H])CCN2S(=O)(=O)c1cccs1 was -1.813%. For CN1CCN(Cc2cccnc2)C2(CCN(C3CCOCC3)C2)C1=O.O=C(O)C(F)(F)F.O=C(O)C(F)(F)F.O=C(O)C(F)(F)F (centres undefined) the result was 10.16%.

Result for Cc1cc(-c2cnc(C)nc2CN(C)C(=O)c2ccccn2)on1 was 1.002%. With O=S(=O)(NCCCn1ccc2ccccc21)N1CCCCC1 the screen gave -14.77%. With COc1ccc(CNCC(C)Oc2ccccn2)cc1Cl.Cl (centres undefined) the screen gave 7.307%. CN1C[C@@H](F)[C@@H](OCc2nc3ccccc3n2C)C1 gave 34.19%. For Cc1ccc(-c2cc(N)c(=O)n(C(C)C(N)=O)n2)o1 (centres undefined) the result was -20.02%.

CC(C)(O)CCc1ccc(C(=O)N2CCN(CC(F)(F)F)CC2)cc1 gave -11.33%. CC(C)OCCCNC(=O)C1CC(=O)N(c2n[nH]c3cccc(F)c23)C1 (centres undefined) gave 6.044%. O=C(CCn1nnc2ccccc2c1=O)N(CC1CCOC1)C1CC1 (centres undefined) read -11.76%. Result for NC(=O)c1c[nH]nc1NC(=O)c1cccc(Cl)c1 was 15.65%. CC(C)NC(=O)C1Cc2nc(-c3ccsc3)sc2N1CC1CC1 (centres undefined) gave 20.51%.

O=C(O)C(F)(F)F.[H][C@@]12CN(C)C[C@]1(C(=O)NCC1CC1)CCCN2c1ncccn1 gave 42.04%. [H][C@@]12C[C@H](C(=O)NCc3cccnc3)[C@@]([H])(CN(Cc3ccc(C)o3)C1)O2 gave 24.06%. Result for Cc1nc2c(c(=O)n1C)CN(C(=O)C1CCCN(C3CCCC3)C1)C2 (centres undefined) was 1.442%. CCCc1nnc(NC(=O)Cc2c(C)nc(C)[nH]c2=O)s1 read 22.78%. With N#Cc1cccc(N2CCC(CO)(CCCc3ccccc3)CC2)n1 the screen gave -0.5134%.

For reference, 4 entries once more:

{"smiles": "CCOC(=O)CNC(=O)NCc1cccn1Cc1ccccc1", "percent effect": "24.44 and -17.17"}
{"smiles": "O=C(NCC(O)c1cccc(F)c1)c1sccc1OC(F)F", "stereo": "centres undefined", "percent effect": -15.82}
{"smiles": "O=C(O)C(F)(F)F.[H][C@]12CCN(C(=O)C3CCOCC3)[C@@]1([H])CCC(=O)N2Cc1ccncc1", "percent effect": 15.79}
{"smiles": "CN(C)Cc1cn(CC2CCCN(c3nccc4occc34)C2)nn1", "stereo": "centres undefined", "percent effect": 25.58}